Measurements published in PubChem BioAssay AID493014 (National Center for Advancing Translational Sciences (NCATS), 2011).
Hit rate of the full screen: of about 340,000 compounds, about 170 (0.05%) were called active. The inconclusive results got no clear call from the source; some entries with a clear call stand among them for comparison. Calls follow the shape of the dose curve; as a rule, active = well fitted inhibition curve with a large enough effect in the signal ratio, with a control signal flat (not every such curve was filed as active); inconclusive = small, poorly fitted or top-dose-only effect, or effect the other way, or a change in a side signal; inactive = flat fitted curve, though single readings scatter; the % refers to the signal ratio. A potency beside an inconclusive call is a rough fit, not a confirmed value.

Assay: qHTS Assay to Find Inhibitors of Chronic Active B-Cell Receptor Signaling;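 as to activity change, negative = inhibition: plate controls were basal doxycycline-induced cells for no effect and cells given 10 µM MG132 for full effect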
Settings: ABC-DLBCL IkBa-CBG/CBR reporter, luminescence ratio (green luciferase fused to IkBa over red control in TMD8 lymphoma cells), 4 h; activity change, negative = inhibition: at 46.1 µM (top of the series)
Summary of the method: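 TMD8 human ABC-DLBCL cells with doxycycline-inducible IκBα–green luciferase fusion and unfused red luciferase, in 0.5% FBS medium; compounds up to 46 uM, 4 h at 37C. Green/red luminescence ratio, filter-overlap corrected, fitted to concentration-response curves.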
Potency is read from the fitted curve at half-maximal effect.

Row | SMILES | Potency | activity change, negative = inhibition
1 | O=C(Nc1ccccn1)c1ccc(C(=O)c2ccccc2)cc1 | inconclusive: 2.91 µM [rising, single point] | 
2 | COc1ccc(CNC(=O)/C=C/c2ccco2)cc1OC |  | inconclusive: 1.44%
3 | CCn1cnc2sc(C(=O)Oc3cccc(C)c3)c(C)c2c1=O |  | inconclusive: 6.88%
4 | CC(C)(C)C(=O)c1cn(CC(=O)NCc2ccc3c(c2)OCO3)c2ccccc12 | inconclusive: 29.1 µM [falling, single point] | 
5 | Cc1cccc(NC(=O)c2ccc(S(=O)(=O)N(C)c3ccccc3)cc2)n1 |  | inactive
6 | CCNc1nc(NCC)nc(N/N=C/c2ccc(O)c(O)c2)n1 |  | inconclusive: -7.82%
7 | Cc1ccc(C(=C2C3C=CC2C2C(=O)NC(=O)C32)c2ccc(C)cc2)cc1 (centres undefined) |  | inconclusive: 6.74%
8 | Cc1ccc(NC(=O)Nc2ccc(Cl)cc2)c(Br)c1 |  | inconclusive: 14.8%
9 | CCN=c1scc(-c2ccc(F)cc2)n1/N=C/c1ccccn1 | inconclusive: 35.5 µM [falling, single point] | 
10 | Cc1cc(C)nc(N/N=C/c2ccccc2OCc2cccc(Br)c2)n1 | inconclusive: 23.1 µM [falling, single point] | 
11 | COc1ccc(/C=C2\SC(=O)N(CCC(=O)N3CCN(C)CC3)C2=O)cc1 |  | inconclusive: -14.8%
12 | O=C(CCOc1ccccc1)Nc1ccnn1C1CCN(C(=O)CCC(F)(F)F)CC1 |  | inactive
13 | CCOC(=O)C1=C(CN2CC(C)CC(C)C2)NC(=O)NC1c1ccc2c(c1)OCO2 (centres undefined) |  | inconclusive: 14.5%
14 | O=[N+]([O-])c1ccc2oc(-c3ccccc3)nc2c1 |  | inconclusive: 1.91%
15 | Cc1nc(-c2noc(-c3ccc(Cl)cc3)n2)c(C(F)(F)F)o1 |  | inconclusive: 6%
16 | Cc1cc2n(n1)C(c1sccc1C)Nc1ccccc1-2 (centres undefined) |  | inconclusive: 0.154%
17 | CCCCC(=O)Nc1nc2c(OC)cc([N+](=O)[O-])cc2s1 | inconclusive: 25.1 µM [falling, partial curve] | 
18 | Cc1ccc2nc(NC(=O)CCCC(=O)O)sc2c1 | inconclusive: 0.398 µM [falling, full curve, poor fit] | 
19 | CCc1nnc(NC(=O)c2nc(S(=O)(=O)Cc3cccc(C)c3)ncc2Cl)s1 |  | inconclusive: 18.6%
20 | Nc1ccc2nc(-c3cccnc3)[nH]c2c1 |  | inactive
21 | O=C1C(=Cc2cccn2-c2ccccc2)C(=O)c2ccccc21 |  | inactive

Row | SMILES | Potency | activity change, negative = inhibition
22 | Cn1c(CN2CCCCC2)nc2cc(NC(=O)c3cccc(Br)c3)ccc21 | inconclusive: 8.2 µM [falling, partial curve, poor fit] | 
23 | CCCC(=O)c1ccc(N2CCN(S(=O)(=O)c3ccc(C)cc3)CC2)c(F)c1 |  | inactive
24 | O=C(COC(=O)CN1C(=O)C2CCCCC2C1=O)NCc1ccc(Cl)cc1Cl (centres undefined) |  | inactive
25 | COc1ccc(/C(C)=N/NC(=O)C(NC(=O)c2ccccc2)c2n[nH]c(=O)c3ccccc23)c(OC)c1 (centres undefined) |  | inconclusive: -40.8%
26 | O=C(Nc1cccnc1)c1ccccc1-c1nc(-c2ccccc2F)no1 |  | inconclusive: -14.4%
27 | CC1=C(C)C(C)=C(C#N)C(=C(C#N)C#N)N1 |  | inconclusive: 11.7%
28 | CC(=O)N1c2ccc(S(=O)(=O)NCCc3ccccc3)cc2CC1C (centres undefined) |  | inactive
29 | O=C(N/N=C/C(Cl)=C/c1ccccc1)c1ccco1 | inconclusive: 28.2 µM [falling, partial curve] | 
30 | O=C(O)CC1(CC(=O)NCc2cc(F)cc3c2OCOC3)CCCCC1 |  | inactive
31 | CCOc1ccccc1OCCCC(=O)Nc1sccc1C(N)=O | inconclusive: 16.4 µM [falling, partial curve] | 
32 | COC(=O)c1ccc2c(c1)C(=O)N(C1CCCCC1)C2=O |  | inconclusive: 1.38%
33 | Fc1ccc(Nc2ccnc(Nc3ccc(F)cc3)n2)cc1 | inconclusive: 18.4 µM [falling, partial curve, poor fit] | 
34 | COc1cccc(/C=C/C(=O)c2cccc([N+](=O)[O-])c2)c1OC |  | inconclusive: -18.1%
35 | O=C(NC(=S)N1CCCCC1c1cccnc1)c1ccccc1 (centres undefined) | inconclusive: 5.62 µM [rising, single point] | 
36 | CSc1ccccc1OCc1cc(C(=O)NCc2csc(C(C)C)n2)no1 |  | inconclusive: -5.11%
37 | COc1ccc(Cl)cc1NC(=S)Nc1cccnc1 |  | inconclusive: 6.34%
38 | Cc1csc(NC(=O)CSc2nnc3c4ccccc4nc(C(C)(C)C)n23)n1 |  | inconclusive: -0.323%
39 | Cc1ccc(CSCc2nc3ccccc3[nH]2)cc1 |  | inconclusive: 18.1%
40 | COCCCNC(=S)Nc1ccc(CC(=O)O)cc1 |  | inconclusive: 10.2%
41 | O=C(Nc1ccc(-n2cnnn2)cc1)C1CCCCC1 | inconclusive: 29.1 µM [falling, single point] | 
42 | COc1ccc(Br)cc1CNC(=O)c1cc(=O)[nH]c2ccc(S(=O)(=O)N3CCCC3)cc12 |  | inconclusive: -1.81%

Row | SMILES | Potency | activity change, negative = inhibition
43 | c1ccc(-c2ccc(-c3cnc4n3CCCCC4)cc2)cc1 |  | inconclusive: -4.57%
44 | O=C(COC(=O)c1ccc(CSc2ccc(Cl)cc2)cc1)Nc1ccccc1 |  | inactive
45 | O=C(O)c1cccc(-c2ccc3c(c2)OCO3)c1 |  | inconclusive: 6.05%
46 | Cn1cccc1/C=C1\SC(=O)N(c2ccccc2)C1=O | inconclusive: 8.2 µM [falling, partial curve] | 
47 | O=C(O)c1cc2nc3c(c(C(F)(F)F)n2n1)CCc1ccccc1-3 |  | inconclusive: 10.9%
48 | O=C(OCC(=O)N1CCOCC1)c1cc(F)c(F)cc1Cl |  | inactive
49 | COc1cc(/C=C(\NC(C)=O)C(=O)Nc2cccc(O)c2)ccc1OC(C)=O |  | inconclusive: 0.81%
50 | COc1ccc(-n2c(C)cc(C(=O)CSc3ccc(NC(C)=O)cc3)c2C)cc1 |  | inactive
51 | O=C(NC1CCCCC1)C1CC(=O)N(CCc2ccc(F)cc2)C1 (centres undefined) |  | inactive
52 | Cn1cccc1C(=O)OCc1nc2ccccc2c(=O)[nH]1 | inconclusive: 18.4 µM [falling, single point] | 
53 | COC(=O)CCN1CCc2cc(N=Nc3ccc([N+](=O)[O-])cc3)ccc21 |  | inconclusive: 11.9%
54 | CC(CN1CCOCC1)OC(=O)c1ccccc1Br (centres undefined) |  | inconclusive: 15.1%
55 | C=CCn1c(C)cc(C(=O)CSc2nnc(C3CC3)n2C2CC2)c1C |  | inconclusive: -0.253%
56 | O=C(c1cc(F)ccc1F)C1CCCN(C(=O)c2cccs2)C1 (centres undefined) |  | inactive
57 | Cc1cc(OCC(=O)Nc2ccc(S(=O)(=O)N3CCN(C)CC3)cc2)cc(C)c1Cl | inconclusive: 23.1 µM [falling, single point] | 
58 | CC(C)CCC1(C)NC(=O)N(CC(=O)Nc2ccc3c(c2)OCCO3)C1=O (centres undefined) |  | inconclusive: -1.24%
59 | c1cc2c(cc1Oc1nc(N3CCOCC3)nc(N3CCOCC3)n1)OCO2 |  | inconclusive: -19.6%
60 | O=C(Nc1cccc(S(=O)(=O)N2CCOCC2)c1)C1COc2ccccc2O1 (centres undefined) |  | inactive
61 | COc1ccccc1CNC(=O)CCCOc1cc(=O)n(C)c2ccccc12 |  | inconclusive: -3.06%
62 | O=C(Nc1nc2ccccc2s1)C1CCCO1 (centres undefined) |  | inconclusive: -0.586%
63 | Cc1nc(C(Cl)(Cl)Cl)nc2[nH]ccc(=O)c12 |  | inactive

Row | SMILES | Potency | activity change, negative = inhibition
64 | CC12CCC(C(=O)NCc3ccc(F)cc3)(OC1=O)C2(C)C (centres undefined) |  | inconclusive: 1.37%
65 | COC(=O)c1[nH]c2ccc(Cl)cc2c1NC(=O)CCN1CCN(C2CCCCC2)CC1 |  | inconclusive: -3.16%
66 | Cc1cccc2sc(N(CCCN(C)C)C(=O)c3cc4ccccc4oc3=O)nc12 | inconclusive: 29.1 µM [falling, single point] | 
67 | CN(c1ccccc1)S(=O)(=O)c1ccc(Cl)c(C(=O)Nc2nc3ccccc3[nH]2)c1 |  | inconclusive: 11.4%
68 | Cc1cc(C)cc(OCCn2c(C3CC(=O)N(c4ccccc4Cl)C3)nc3ccccc32)c1 (centres undefined) |  | inconclusive: -8.05%
69 | O=C(NNC(=S)Nc1ccccc1Cl)c1ccccc1Br | inconclusive: 7.94 µM [cytotoxic, partial curve] | 
70 | O=C(CN1CCN(C(C(=O)Nc2ccc(Cl)cc2C(F)(F)F)c2ccccc2)CC1)NC1CC1 (centres undefined) |  | inactive
71 | COc1ccc(C2CC(=O)N(C)c3ccccc3S2)cc1 (centres undefined) | inconclusive: 11.2 µM [falling, partial curve] | 
72 | Cc1onc(-c2ccccc2Cl)c1C(=O)NCc1ccc2c(c1)cc(C)n2C |  | inactive
73 | CC(C)n1cnc2cc(NCc3ccco3)ccc21 |  | inconclusive: 4.4%
74 | O=C(CCNC(=O)c1ccccc1Cl)Nc1nnc(C2CC2)s1 |  | inactive
75 | Cc1occc1-c1nnc(SCC(=O)c2cc3ccccc3oc2=O)o1 |  | inconclusive: -12.8%
76 | CC1=C(C#N)C(c2ccccc2O)C(C#N)=C(C)N1 |  | inconclusive: 17.4%
77 | Cc1nnc(N/N=C/c2c(Cl)cccc2Cl)n1N |  | inconclusive: -0.81%
78 | CCOC(=O)C1CCN(C(=O)CCNC(=O)c2cc(OC)c(OC)c(OC)c2)CC1 |  | inconclusive: 4.16%
79 | COc1cccc(-c2nc3c(c(=O)[nH]c(=O)n3Cc3ccccc3)n2CCO)c1OC(F)F | inconclusive: 25.1 µM [falling, partial curve, poor fit] | 
80 | Cc1nn(C)c(C)c1S(=O)(=O)NCCc1ccc(Cl)cc1 |  | inactive
81 | Cc1cccc(C)c1N(CC(=O)N1CCOCC1)S(C)(=O)=O |  | inactive
82 | COc1ccc(-c2c(-c3ccc4c(c3)OCO4)noc2C)cn1 |  | inactive
83 | Cc1[nH]c(-c2ccc(F)cc2)cc1C(=O)N1CCN(c2ccccc2)CC1 |  | inconclusive: -9.05%
84 | Cc1ccccc1NC(=O)/C(C#N)=C/c1ccsc1 | inconclusive: 29.1 µM [falling, single point] | 

Look-ups from the entries so far:
`CN(c1ccccc1)S(=O)(=O)c1ccc(Cl)c(C(=O)Nc2nc3ccccc3[nH]2)c1` | activity change, negative = inhibition: inconclusive: 11.4%
`O=C(CN1CCN(C(C(=O)Nc2ccc(Cl)cc2C(F)(F)F)c2ccccc2)CC1)NC1CC1` (centres undefined) | activity change, negative = inhibition: inactive
`Cc1[nH]c(-c2ccc(F)cc2)cc1C(=O)N1CCN(c2ccccc2)CC1` | activity change, negative = inhibition: inconclusive: -9.05%
`Cc1cc(C)cc(OCCn2c(C3CC(=O)N(c4ccccc4Cl)C3)nc3ccccc32)c1` (centres undefined) | activity change, negative = inhibition: inconclusive: -8.05%
`Cc1occc1-c1nnc(SCC(=O)c2cc3ccccc3oc2=O)o1` | activity change, negative = inhibition: inconclusive: -12.8%
